Reference: the supplement of paper PMC8728848
The list shows a part of the results.

How the values were obtained:
Experiment in all cases: glycan array binding signal (z-score within array); higher = stronger binding
Conditions in all cases: glycan notation: IUPAC condensed, linker removed
[1] = molecular target: Gal(b1-4)GlcNAc(b1-6)GalNAc
Method in brief: (§1)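 Arrays were curated from the Consortium for Functional Glycomics database, 3228 in total, and kept only where the protein sequence was available. Binding is expressed as a within-array Z-score. This score was averaged across arrays of the same protein sequence at different concentrations or buffers and across linkers, and negative values can be read as non-binding.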

[2] = molecular target: Gal(b1-4)GlcNAc(b1-6)[Gal(b1-3)]GalNAc
Method in brief: as §1

[3] = molecular target: Gal(b1-4)GlcNAc(b1-6)[Gal(b1-4)GlcNAc(b1-3)]GalNAc
Method in brief: as §1

Gal(b1-4)GlcNAc6P = molecular target: Gal(b1-4)GlcNAc6P
Method in brief: as §1

Gal(b1-6)Gal = molecular target: Gal(b1-6)Gal
Method in brief: as §1

Gal3S(b1-3)GalNAc = molecular target: Gal3S(b1-3)GalNAc
Method in brief: as §1

Gal3S(b1-3)GlcNAc = molecular target: Gal3S(b1-3)GlcNAc
Method in brief: as §1

[4] = molecular target: Gal3S(b1-3)[Fuc(a1-4)]GlcNAc
Method in brief: as §1

Gal3S(b1-4)Glc = molecular target: Gal3S(b1-4)Glc
Method in brief: as §1

Gal3S(b1-4)Glc6S = molecular target: Gal3S(b1-4)Glc6S
Method in brief: as §1

Gal3S(b1-4)GlcNAc = molecular target: Gal3S(b1-4)GlcNAc
Method in brief: as §1

[5] = molecular target: Gal3S(b1-4)[Fuc(a1-3)]Glc6S
Method in brief: as §1

[6] = molecular target: Gal3S(b1-4)[Fuc(a1-3)]GlcNAc
Method in brief: as §1

[7] = molecular target: Gal3S(b1-4)[Fuc(a1-3)]GlcNAc6S
Method in brief: as §1

Gal3S4S(b1-4)GlcNAc = molecular target: Gal3S4S(b1-4)GlcNAc
Method in brief: as §1

Gal3S6S(b1-4)GlcNAc = molecular target: Gal3S6S(b1-4)GlcNAc
Method in brief: as §1

Gal3S6S(b1-4)GlcNAc6S = molecular target: Gal3S6S(b1-4)GlcNAc6S
Method in brief: as §1

Gal4S(b1-4)GlcNAc = molecular target: Gal4S(b1-4)GlcNAc
Method in brief: as §1

Gal4S6S(b1-4)GlcNAc = molecular target: Gal4S6S(b1-4)GlcNAc
Method in brief: as §1

Gal6P(b1-4)GlcNAc = molecular target: Gal6P(b1-4)GlcNAc
Method in brief: as §1

Gal6S(b1-3)GlcNAc = molecular target: Gal6S(b1-3)GlcNAc
Method in brief: as §1

Gal6S(b1-3)GlcNAc6S = molecular target: Gal6S(b1-3)GlcNAc6S
Method in brief: as §1

Gal6S(b1-4)Glc = molecular target: Gal6S(b1-4)Glc
Method in brief: as §1

B1: Pwp6 (Candida glabrata) (protein)
chain: MGSSHHHHHHSSGLVPRGSHMASANLPKLTNICQIPDNVKKTSGFKGEIRRIGLFPPGGDYTYLLKFPSTGSTASDTISLTTKPQLSTSGWFPSLFGHTYFIKADLLVYMVAYFVPTETGEYTFKLVNSDDAAVMYVGNPSAFPCGSIDTWPEPRKEDINVCDKISASTKLYMEKGLAYPVRLVWYNGGGDGQFNAQFIDPSGTTHTDWNGYVWQYDACTDCDYK
glycan array binding signal (z-score) [1]: -0.613 | glycan array binding signal (z-score) [2]: 0.345 | glycan array binding signal (z-score) [3]: -0.551 | glycan array binding signal (z-score) (Gal(b1-4)GlcNAc6P): -0.186 | glycan array binding signal (z-score) (Gal(b1-6)Gal): -0.187 | glycan array binding signal (z-score) (Gal3S(b1-3)GalNAc): -0.791 | glycan array binding signal (z-score) (Gal3S(b1-3)GlcNAc): -0.817 | glycan array binding signal (z-score) [4]: -0.067 | glycan array binding signal (z-score) (Gal3S(b1-4)Glc): -0.252 | glycan array binding signal (z-score) (Gal3S(b1-4)Glc6S): -0.421 | glycan array binding signal (z-score) (Gal3S(b1-4)GlcNAc): -0.435 | glycan array binding signal (z-score) [5]: 0.112 | glycan array binding signal (z-score) [6]: -0.708 | glycan array binding signal (z-score) [7]: -0.311 | glycan array binding signal (z-score) (Gal3S4S(b1-4)GlcNAc): -0.287 | glycan array binding signal (z-score) (Gal3S6S(b1-4)GlcNAc): -0.372 | glycan array binding signal (z-score) (Gal3S6S(b1-4)GlcNAc6S): -0.287 | glycan array binding signal (z-score) (Gal4S(b1-4)GlcNAc): -0.746 | glycan array binding signal (z-score) (Gal4S6S(b1-4)GlcNAc): -0.534 | glycan array binding signal (z-score) (Gal6P(b1-4)GlcNAc): -0.54 | glycan array binding signal (z-score) (Gal6S(b1-3)GlcNAc): -0.677 | glycan array binding signal (z-score) (Gal6S(b1-3)GlcNAc6S): -0.712 | glycan array binding signal (z-score) (Gal6S(b1-4)Glc): -0.624
